# Experimental data from PubChem BioAssay.
# The other results are listed elsewhere or left out.
# Columns and labels:
# [1] = growth inhibition, single agent or in combination, cell-based, chromothripsis tumors, cisplatin or BGB combos (AID 1671449); details: LFS_MB_P medulloblastoma cells;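 further: cells exposed for 96 hours; 0% = vehicle DMSO and 100% = killing by high DMSO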
# [2] = growth inhibition, single agent and combos, cell-based, chromothripsis tumors, cisplatin or BGB combos (AID 1671450); details: HDN33 neuroblastoma cells, stronger effect = higher value;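 further: cells exposed to compound for four days; 0% = vehicle DMSO and 100% = cell killing by high DMSO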
# [3] = growth inhibition, single agents and combos, ICB984, cell-based, cisplatin or BGB combos, synergistic combos for chromothripsis tumors (AID 1671451); details: ICB984 medulloblastoma cells, drug combinations, stronger effect = higher value;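 further: cells exposed for 96 hours before readout; 0% = vehicle DMSO and 100% = killing by high DMSO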
# [4] = growth inhibition, single agents and combos, LFS_MB_1R, cell-based, cisplatin or BGB combos, synergistic combos for chromothripsis tumors (AID 1671452); details: LFS_MB_1R medulloblastoma cells, stronger effect = higher value;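 further: cells exposed for 96 hours before readout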
# [5] = growth inhibition, single agents and combos, HTB85, cell-based, BGB or cisplatin IC20 combos, synergistic combos for chromothripsis tumors (AID 1671453); details: HTB85 osteosarcoma cells, drug combinations, stronger effect = higher value;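 further: cells exposed for 96 hours before readout; 0% = vehicle DMSO and 100% = high DMSO killing control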
# [6] = growth inhibition, single agents and combos, CRL2098, cell-based, BGB or cisplatin IC20 combos, synergistic combos for chromothripsis tumors (AID 1671454); details: CRL2098 osteosarcoma cells, drug combinations, stronger effect = higher value;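 further: cells exposed for 96 h before readout; 0% = vehicle DMSO and 100% = killing by high DMSO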
# [7] = growth inhibition, single agents and combos, HD-MB03, cell-based, BGB or cisplatin IC20 combos, synergistic combos for chromothripsis tumors (AID 1671455); details: HD-MB03 medulloblastoma cells, stronger effect = higher value;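 further: 0% = vehicle DMSO and 100% = high DMSO as cytotoxic control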
# [8] = growth inhibition, single agents and combos, UWB1.289, cell-based, BGB or cisplatin combos, synergistic combos for chromothripsis tumors (AID 1671456); details: UWB1.289 ovarian carcinoma cells, at 0.05 µM, stronger effect = higher value;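 further: cells exposed to compound for four days; 0% = vehicle DMSO and 100% = killing by high DMSO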
# [9] = growth inhibition, single agents and combos, LFS_MB_2R, cell-based, cisplatin combos, synergistic combos for chromothripsis tumors (AID 1671457); details: LFS_MB_2R medulloblastoma cells, measured here: combination with cisplatin, stronger effect = higher value;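 further: cells exposed to compound for four days before readout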
# [10] = growth inhibition, MDA-MB-436, cell-based, BGB or cisplatin combos, synergistic combos for chromothripsis tumors (AID 1671458); details: MDA-MB-436 breast carcinoma growth inhibition, drug combinations, stronger effect = higher value;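 further: cells exposed for 96 hours; 0% = vehicle DMSO and 100% = killing by high DMSO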
# [11] = UWB1.289_BRCA1 ovarian cancer growth, cell-based, BGB or cisplatin combinations (AID 1671459); details: UWB1.289 BRCA1 ovarian carcinoma, drug combinations, concentration series, at 5 µM, stronger effect = higher value
# [12] = drug combination toxicity in non-malignant astrocytes – cell-based, BGB or cisplatin IC20 combos, cytotoxicity control for chromothriptic childhood tumor combination screen (AID 1671460); details: Human astrocytes, viability inhibition, drug combinations, at 0.5 µM, stronger effect = higher value;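 further: cells exposed to compounds for 96 hours before viability readout; 0% = vehicle and 100% = killing control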
# [13] = BT084 cell growth, single and combined drugs, ICGC_MB145, cisplatin and BGB IC40 combos (AID 1671461); details: BT084 medulloblastoma cells, drug combinations, stronger effect = higher value;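 further: cells exposed to drugs for 96 hours; 0% = vehicle DMSO and 100% = high DMSO full killing control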
# [14] = RCMB18 cell growth, single agent and combined, cisplatin and BGB IC40 combos (AID 1671462); details: RCMB18 medulloblastoma cells, stronger effect = higher value;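 further: cells exposed to compound for four days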
# [15] = CRL1545 cell growth, single agent and combined, cisplatin and BGB IC20 combos (AID 1671464); details: CRL1545 osteosarcoma cells, stronger effect = higher value;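 further: cells exposed to compound for 96 hours before readout; 0% = vehicle DMSO and 100% = high DMSO killing control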
# [16] = measured here: combination with BGB IC40, at 0.05 µM
# [17] = measured here: with BGB IC20 combination, at 0.5 µM
# [18] = measured here: with cisplatin IC20 combination, at 0.5 µM
# [19] = measured here: combination with cisplatin, at 0.5 µM
smiles,measurement,setting,value
CN(CCCl)CCCl,inhibition,"[1]; measured here: combination with BGB IC20, at 0.005 µM",-24%
same,inhibition,"[1]; measured here: combination with BGB IC40, at 0.005 µM",-8.04%
same,inhibition,[1]; [16],-5.12%
same,inhibition,"[1]; measured here: combination with cisplatin, at 0.5 µM, stronger effect = higher value",-44.2%
same,inhibition,"[1]; measured here: combination with cisplatin, at 5 µM, stronger effect = higher value",2.66%
same,inhibition,"[2]; BGB combo, at 5 µM",52.5%
same,inhibition,"[2]; cisplatin combo, at 5 µM",21.8%
same,inhibition,[2]; [17],-16.7%
same,inhibition,[2]; [18],-26.7%
same,inhibition,"[2]; single agent, at 5 µM",21.5%
same,inhibition,"[3]; BGB IC20 combo, at 0.005 µM",-10.7%
same,inhibition,"[3]; BGB IC40 combo, at 0.005 µM",-25.4%
same,inhibition,"[3]; BGB IC40 combo, at 0.05 µM",26.9%
same,inhibition,"[3]; cisplatin combo, at 0.05 µM",24.9%
same,inhibition,"[3]; cisplatin combo, at 0.5 µM",-47.1%
same,inhibition,"[3]; cisplatin combo, at 5 µM",-39.3%
same,inhibition,"[3]; measured here: 5 uM single agent, at 5 µM",-13%
same,inhibition,[4]; [16],-55%
same,inhibition,[4]; [19],-93.7%
same,inhibition,"[4]; measured here: combination with cisplatin, at 5 µM",29.8%
same,inhibition,"[5]; measured here: with BGB IC20, at 0.5 µM",-3.48%
same,inhibition,"[5]; measured here: with BGB IC20, at 5 µM",67.5%
same,inhibition,"[5]; measured here: with cisplatin IC20, at 0.5 µM",-13.2%
same,inhibition,"[5]; measured here: with cisplatin IC20, at 5 µM",40.7%
same,inhibition,"[5]; single agent, at 5 µM",18.5%
same,inhibition,"[6]; measured here: combination with BGB at IC20, at 0.5 µM",-107%
same,inhibition,"[6]; measured here: combination with cisplatin at IC20, at 0.5 µM",-91.7%
same,inhibition,"[7]; measured here: combo with BGB at IC20, at 0.5 µM",42.6%
same,inhibition,"[7]; measured here: combo with cisplatin at IC20, at 0.5 µM",13.6%
same,inhibition,[8]; measured here: inhibition with BGB combination,-24.2%
same,inhibition,[8]; measured here: inhibition with cisplatin combination,-14.4%
same,inhibition,[9]; at 0.5 µM,-10.8%
same,inhibition,[9]; at 5 µM,-40.7%
same,inhibition,"[10]; measured here: BGB combination, at 0.5 µM",15.8%
same,inhibition,"[10]; measured here: BGB combination, at 5 µM",51.6%
same,inhibition,"[10]; measured here: cisplatin combination, at 0.5 µM",25.9%
same,inhibition,"[10]; measured here: cisplatin combination, at 5 µM",55.3%
same,inhibition,[11]; BGB combination,-2.08%
same,inhibition,[11]; cisplatin combination,9.72%
same,inhibition,[12]; measured here: combo with BGB IC20,8.54%
same,inhibition,[12]; measured here: combo with cisplatin IC20,-41.1%
same,inhibition,"[13]; cisplatin combination, at 0.5 µM",-2.91%
same,inhibition,"[13]; cisplatin combination, at 5 µM",28.5%
same,inhibition,"[13]; measured here: BGB IC40 combination 0.05 uM, at 0.05 µM",-24.5%
same,inhibition,"[13]; single agent, at 5 µM",-18.7%
same,inhibition,"[14]; cisplatin combo, at 5 µM",43.8%
same,inhibition,"[14]; measured here: BGB IC40 combination, at 0.05 µM",-4.74%
same,inhibition,[14]; [19],-54.5%
same,inhibition,"[14]; single agent, at 5 µM",-6.45%
same,inhibition,[15]; [17],-18.4%
same,inhibition,[15]; [18],-25.8%
same,inhibition,"[15]; single agent, at 0.05 µM",-88.1%
same,inhibition,"[15]; single agent, at 5 µM",61.1%
